# Laboratory results: the supplement of paper PMC8728848
# Some of the results follow.
# B1: RsaA-N-term (Caulobacter crescentus), P35828 (protein)
# chain: MAYTTAQLVTAYTNANLGKAPDAATTLTLDAYATQTQTGGLSDAAALTNTLKLVNSTTAVAIQTYQFFTGVAPSAAGLDFLVDSTTNTNDLNDAYYSKFAQENRFINFSINLATGAGAGATAFAAAYTGVSYAQTVATAYDKIIGNAVATAAGVDVAAAVAFLSRQANIDYLTAFVRANTPFTAAADIDLAVKAALIGTILNAATVSGIGGYATATAAMINDLSDGALSTDNAAGVNLFTAYPSSGVSGSTLSLTTGTDTLTGTANNDTFVAGEVAGDGSGWSHPQFEKGG
# Assays:
# Assay in all cases: glycan array binding signal (z-score within array); higher = stronger binding
# Settings in all cases: glycan notation: IUPAC condensed, linker removed
# [1] = molecular target: Neu5Ac(a2-6)Gal(b1-4)GlcNAc(b1-2)Man(a1-3)[GlcNAc(b1-4)][Neu5Ac(a2-6)Gal(b1-4)GlcNAc(b1-2)Man(a1-6)]Man(b1-4)GlcNAc(b1-4)GlcNAc
# Summary of the method: (§1)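 The binding signal is a Z-score computed within each array and averaged over linkers. Arrays of the same protein sequence at different concentrations or buffers were also averaged together. Data originate from 3228 arrays in the Consortium for Functional Glycomics database, kept only where the protein sequence was available.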
# [2] = molecular target: Neu5Ac(a2-6)Gal(b1-4)GlcNAc(b1-2)Man(a1-3)[Man(a1-6)]Man(b1-4)GlcNAc(b1-4)GlcNAc
# Summary of the method: as §1
# [3] = molecular target: Neu5Ac(a2-6)Gal(b1-4)GlcNAc(b1-2)Man(a1-3)[Neu5Ac(a2-3)Gal(b1-4)GlcNAc(b1-2)Man(a1-6)]Man(b1-4)GlcNAc(b1-4)GlcNAc
# Summary of the method: as §1
# [4] = molecular target: Neu5Ac(a2-6)Gal(b1-4)GlcNAc(b1-2)Man(a1-3)[Neu5Ac(a2-6)Gal(b1-4)GlcNAc(b1-2)Man(a1-6)]Man(b1-4)GlcNAc(b1-4)GlcNAc
# Summary of the method: as §1
# [5] = molecular target: Neu5Ac(a2-6)Gal(b1-4)GlcNAc(b1-2)Man(a1-3)[Neu5Ac(a2-6)Gal(b1-4)GlcNAc(b1-2)Man(a1-6)]Man(b1-4)GlcNAc(b1-4)[Fuc(a1-6)]GlcNAc
# Summary of the method: as §1
# [6] = molecular target: Neu5Ac(a2-6)Gal(b1-4)GlcNAc(b1-2)Man(a1-6)Man(b1-4)GlcNAc(b1-4)GlcNAc
# Summary of the method: as §1
# [7] = molecular target: Neu5Ac(a2-6)Gal(b1-4)GlcNAc(b1-2)Man(a1-6)[Gal(b1-4)GlcNAc(b1-2)Man(a1-3)]Man(b1-4)GlcNAc(b1-4)GlcNAc
# Summary of the method: as §1
# [8] = molecular target: Neu5Ac(a2-6)Gal(b1-4)GlcNAc(b1-2)Man(a1-6)[GlcNAc(b1-2)Man(a1-3)]Man(b1-4)GlcNAc(b1-4)GlcNAc
# Summary of the method: as §1
# [9] = molecular target: Neu5Ac(a2-6)Gal(b1-4)GlcNAc(b1-2)Man(a1-6)[Man(a1-3)]Man(b1-4)GlcNAc(b1-4)GlcNAc
# Summary of the method: as §1
# [10] = molecular target: Neu5Ac(a2-6)Gal(b1-4)GlcNAc(b1-2)[Neu5Ac(a2-6)Gal(b1-4)GlcNAc(b1-4)]Man(a1-3)[GlcNAc(b1-4)][Neu5Ac(a2-6)Gal(b1-4)GlcNAc(b1-2)[Neu5Ac(a2-6)Gal(b1-4)GlcNAc(b1-6)]Man(a1-6)]Man(b1-4)GlcNAc(b1-4)GlcNAc
# Summary of the method: as §1
# [11] = molecular target: Neu5Ac(a2-6)Gal(b1-4)GlcNAc(b1-2)[Neu5Ac(a2-6)Gal(b1-4)GlcNAc(b1-4)]Man(a1-3)[GlcNAc(b1-4)][Neu5Ac(a2-6)Gal(b1-4)GlcNAc(b1-4)Man(a1-6)]Man(b1-4)GlcNAc(b1-4)GlcNAc
# Summary of the method: as §1
# [12] = molecular target: Neu5Ac(a2-6)Gal(b1-4)GlcNAc(b1-2)[Neu5Ac(a2-6)Gal(b1-4)GlcNAc(b1-6)]Man(a1-6)[Neu5Ac(a2-6)Gal(b1-4)GlcNAc(b1-2)Man(a1-3)][GlcNAc(b1-4)]Man(b1-4)GlcNAc(b1-4)GlcNAc
# Summary of the method: as §1
# [13] = molecular target: Neu5Ac(a2-6)Gal(b1-4)GlcNAc(b1-3)Gal(b1-3)GlcNAc
# Summary of the method: as §1
# [14] = molecular target: Neu5Ac(a2-6)Gal(b1-4)GlcNAc(b1-3)Gal(b1-4)GlcNAc
# Summary of the method: as §1
# [15] = molecular target: Neu5Ac(a2-6)Gal(b1-4)GlcNAc(b1-3)Gal(b1-4)GlcNAc(b1-2)Man(a1-3)[Neu5Ac(a2-6)Gal(b1-4)GlcNAc(b1-3)Gal(b1-4)GlcNAc(b1-2)Man(a1-6)]GalNAc
# Summary of the method: as §1
# [16] = molecular target: Neu5Ac(a2-6)Gal(b1-4)GlcNAc(b1-3)Gal(b1-4)GlcNAc(b1-3)Gal(b1-4)GlcNAc
# Summary of the method: as §1
# [17] = molecular target: Neu5Ac(a2-6)Gal(b1-4)GlcNAc(b1-3)Gal(b1-4)GlcNAc(b1-3)Gal(b1-4)GlcNAc(b1-2)Man(a1-3)[Neu5Ac(a2-6)Gal(b1-4)GlcNAc(b1-3)Gal(b1-4)GlcNAc(b1-3)Gal(b1-4)GlcNAc(b1-2)Man(a1-6)]GalNAc
# Summary of the method: as §1
# [18] = molecular target: Neu5Ac(a2-6)Gal(b1-4)GlcNAc(b1-3)Gal(b1-4)GlcNAc(b1-3)GalNAc
# Summary of the method: as §1
# [19] = molecular target: Neu5Ac(a2-6)Gal(b1-4)GlcNAc(b1-3)Gal(b1-4)GlcNAc(b1-3)[Neu5Ac(a2-6)Gal(b1-4)GlcNAc(b1-3)Gal(b1-4)GlcNAc(b1-6)]GalNAc
# Summary of the method: as §1
# [20] = molecular target: Neu5Ac(a2-6)Gal(b1-4)GlcNAc(b1-3)Gal(b1-4)GlcNAc(b1-6)[Gal(b1-3)]GalNAc
# Summary of the method: as §1
# [21] = molecular target: Neu5Ac(a2-6)Gal(b1-4)GlcNAc(b1-3)Gal(b1-4)[Fuc(a1-3)]GlcNAc(b1-3)Gal(b1-4)[Fuc(a1-3)]GlcNAc
# Summary of the method: as §1
# [22] = molecular target: Neu5Ac(a2-6)Gal(b1-4)GlcNAc(b1-3)GalNAc
# Summary of the method: as §1
# [23] = molecular target: Neu5Ac(a2-6)Gal(b1-4)GlcNAc(b1-3)[Neu5Ac(a2-6)Gal(b1-4)GlcNAc(b1-6)]GalNAc
# Summary of the method: as §1
# [24] = molecular target: Neu5Ac(a2-6)Gal(b1-4)GlcNAc(b1-6)GalNAc
# Summary of the method: as §1
# [25] = molecular target: Neu5Ac(a2-6)Gal(b1-4)GlcNAc(b1-6)[Gal(b1-3)GlcNAc(b1-3)]Gal(b1-4)Glc
# Summary of the method: as §1
# [26] = molecular target: Neu5Ac(a2-6)Gal(b1-4)GlcNAc(b1-6)[Gal(b1-3)]GalNAc
# Summary of the method: as §1
# [27] = molecular target: Neu5Ac(a2-6)Gal(b1-4)GlcNAc6S
# Summary of the method: as §1
# [28] = molecular target: Neu5Ac(a2-6)GalNAc
# Summary of the method: as §1
# [29] = molecular target: Neu5Ac(a2-6)GalNAc(b1-4)GlcNAc
# Summary of the method: as §1
# [30] = molecular target: Neu5Ac(a2-6)GalNAc(b1-4)GlcNAc6S
# Summary of the method: as §1
# [31] = molecular target: Neu5Ac(a2-6)GlcNAc(b1-4)GlcNAc
# Summary of the method: as §1
binder,measurement,setting,value
B1,glycan array binding signal (z-score),[1],0.969
same,glycan array binding signal (z-score),[2],0.035
same,glycan array binding signal (z-score),[3],2.79
same,glycan array binding signal (z-score),[4],0.398
same,glycan array binding signal (z-score),[5],-0.211
same,glycan array binding signal (z-score),[6],-0.707
same,glycan array binding signal (z-score),[7],-0.04
same,glycan array binding signal (z-score),[8],0.365
same,glycan array binding signal (z-score),[9],1.88
same,glycan array binding signal (z-score),[10],0.403
same,glycan array binding signal (z-score),[11],0.254
same,glycan array binding signal (z-score),[12],-0.876
same,glycan array binding signal (z-score),[13],-0.356
same,glycan array binding signal (z-score),[14],0.583
same,glycan array binding signal (z-score),[15],-1.33
same,glycan array binding signal (z-score),[16],0.431
same,glycan array binding signal (z-score),[17],-0.611
same,glycan array binding signal (z-score),[18],0.299
same,glycan array binding signal (z-score),[19],-0.68
same,glycan array binding signal (z-score),[20],0.378
same,glycan array binding signal (z-score),[21],-0.813
same,glycan array binding signal (z-score),[22],-0.946
same,glycan array binding signal (z-score),[23],-0.254
same,glycan array binding signal (z-score),[24],0.243
same,glycan array binding signal (z-score),[25],1.12
same,glycan array binding signal (z-score),[26],-0.134
same,glycan array binding signal (z-score),[27],0.208
same,glycan array binding signal (z-score),[28],2.17
same,glycan array binding signal (z-score),[29],-0.593
same,glycan array binding signal (z-score),[30],-0.147
same,glycan array binding signal (z-score),[31],0.512

# 2 entries from above, with bars between the fields:
binder | measurement | setting | value
B1 | glycan array binding signal (z-score) | [20] | 0.378
same | glycan array binding signal (z-score) | [21] | -0.813
